Test results reported in PubChem BioAssay AID651647 (Sanford-Burnham Center for Chemical Genomics, 2012).
The list shows a part of the results.

Assay: MT1-MMP activation inhibitors, cellular reporter – HT1080 RFP-PRO-GFP cells, GFP/RFP fluorescence, primary screen (AID 651647)
Details: GFP/RFP ratio fluorescence, overnight, RFP expression control read, at 20 µM
Summary of the method: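 Assay system: HT1080 RFP-PRO-GFP cells. Benchmarks: DMSO vehicle wells and RFP-L50D-GFP reporter cell wells. Times: overnight cell settling, then overnight compound exposure, 37 °C, 5% CO2. Compound: 20 µM single dose, 1% DMSO. Read-out basis: GFP/RFP fluorescence ratio.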

SMILES | RFP signal change [%]
CCC(=O)N(c1ccccc1)C1(COC)CCN(CCn2nnn(CC)c2=O)CC1 | 2.95
CCC(=O)N(c1ccccc1)C1(COC)CCN(CCc2cccs2)CC1 | 0.502
